No constants are given. Whether binding was seen depends on the method and setting. In cells and extracts the contact can be indirect. Some binding calls cover weakened binding; strength is not graded here.
Assays:
[1] = molecular target: Focal adhesion kinase (endogenous, NIH3T3 fibroblasts) (mouse (endogenous in NIH3T3)) (UniProt P34152); assay: co-IP; quiescent NIH3T3 cells (untransfected or transfected with non-targeting siRNA) treated 5 min with 10 nM R1881; lysates immunoprecipitated with anti-FAK antibody, immunoblot (Fig. 2C, 7A, 7C, 8B)
[2] = molecular target: Integrin beta 1 (endogenous, NIH3T3 fibroblasts) (mouse (endogenous in NIH3T3)) (UniProt P09055); assay: co-IP; quiescent NIH3T3 cells treated 5 min with 10 nM R1881; lysates immunoprecipitated with anti-integrin beta 1 antibody, immunoblot (Fig. 8A)
[3] = molecular target: Androgen receptor (endogenous, NIH3T3 fibroblasts) (mouse (endogenous in NIH3T3)) (UniProt P19091); assay: co-IP; quiescent NIH3T3 cells untreated or treated 5 min with R1881 (1 pM or 10 nM); lysates immunoprecipitated with anti-AR antibody, immunoblot (Fig. 6D, Fig. 8C)
[4] = molecular target: Integrin beta 1 (endogenous, NIH3T3 fibroblasts) (mouse (endogenous in NIH3T3)) (UniProt P09055); assay: co-IP; quiescent NIH3T3 cells treated 5 min with 10 nM R1881 in the presence of 10 µM Casodex; lysates immunoprecipitated with anti-integrin beta 1 antibody, immunoblot (Fig. 8A)
[5] = molecular target: Androgen receptor (endogenous, NIH3T3 fibroblasts) (mouse (endogenous in NIH3T3)) (UniProt P19091); assay: co-IP; quiescent NIH3T3 cells treated 5 min with 10 nM R1881 in the presence of 10 microM Casodex; lysates immunoprecipitated with anti-AR antibody, immunoblot (Fig. 6D)
[6] = molecular target: Filamin A (endogenous, NIH3T3 fibroblasts) (mouse (endogenous in NIH3T3)) (UniProt Q8BTM8); assay: co-IP; quiescent NIH3T3 cells untreated or treated 5 min with R1881 (1 pM or 10 nM); lysates immunoprecipitated with anti-FlnA antibody, immunoblot (Fig. 6C, Fig. S6)
[7] = molecular target: Focal adhesion kinase (endogenous, NIH3T3 fibroblasts) (mouse (endogenous in NIH3T3)) (UniProt P34152); assay: co-IP; quiescent NIH3T3 cells transfected with non-targeting siRNA, untreated (basal conditions, no R1881); lysates immunoprecipitated with anti-FAK antibody, immunoblot (Fig. 7A, 7C)
[8] = molecular target: Filamin A (endogenous, NIH3T3 fibroblasts) (mouse (endogenous in NIH3T3)) (UniProt Q8BTM8); assay: co-IP; quiescent NIH3T3 cells treated 5 min with 10 nM R1881 in the presence of 10 microM Casodex; lysates immunoprecipitated with anti-FlnA antibody, immunoblot (Fig. 6C, Fig. S6)

By UniProt entry, the sequences of proteins in these tests, tags left out. Residues count along the entry.
UniProt P34152: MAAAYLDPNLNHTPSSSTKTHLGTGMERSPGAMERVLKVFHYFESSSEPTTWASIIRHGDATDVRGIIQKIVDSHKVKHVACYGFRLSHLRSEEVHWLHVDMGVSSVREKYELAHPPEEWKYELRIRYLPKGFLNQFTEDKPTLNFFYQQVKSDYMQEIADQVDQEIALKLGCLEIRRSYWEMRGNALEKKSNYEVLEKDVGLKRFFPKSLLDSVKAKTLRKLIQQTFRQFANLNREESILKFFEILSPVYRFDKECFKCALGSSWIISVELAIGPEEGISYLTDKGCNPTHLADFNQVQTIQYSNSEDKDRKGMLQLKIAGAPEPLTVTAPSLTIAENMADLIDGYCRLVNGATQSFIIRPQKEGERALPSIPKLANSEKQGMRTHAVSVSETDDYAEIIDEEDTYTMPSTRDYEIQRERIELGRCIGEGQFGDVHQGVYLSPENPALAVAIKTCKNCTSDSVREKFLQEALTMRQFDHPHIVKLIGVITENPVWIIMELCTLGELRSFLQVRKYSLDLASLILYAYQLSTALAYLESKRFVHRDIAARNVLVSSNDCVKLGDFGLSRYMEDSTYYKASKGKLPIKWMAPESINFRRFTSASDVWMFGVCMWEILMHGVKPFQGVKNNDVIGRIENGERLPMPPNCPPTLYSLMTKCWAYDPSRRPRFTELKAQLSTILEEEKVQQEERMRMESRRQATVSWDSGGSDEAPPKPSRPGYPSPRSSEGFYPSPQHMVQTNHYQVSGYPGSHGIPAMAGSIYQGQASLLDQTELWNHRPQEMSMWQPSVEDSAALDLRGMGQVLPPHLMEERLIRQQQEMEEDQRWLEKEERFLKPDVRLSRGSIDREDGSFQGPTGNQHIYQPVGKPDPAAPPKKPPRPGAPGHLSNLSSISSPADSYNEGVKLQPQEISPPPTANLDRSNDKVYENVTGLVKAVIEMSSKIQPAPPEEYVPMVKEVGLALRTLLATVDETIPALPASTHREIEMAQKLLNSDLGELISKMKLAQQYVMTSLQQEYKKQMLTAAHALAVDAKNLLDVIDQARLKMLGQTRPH
UniProt P09055, residues 21-798: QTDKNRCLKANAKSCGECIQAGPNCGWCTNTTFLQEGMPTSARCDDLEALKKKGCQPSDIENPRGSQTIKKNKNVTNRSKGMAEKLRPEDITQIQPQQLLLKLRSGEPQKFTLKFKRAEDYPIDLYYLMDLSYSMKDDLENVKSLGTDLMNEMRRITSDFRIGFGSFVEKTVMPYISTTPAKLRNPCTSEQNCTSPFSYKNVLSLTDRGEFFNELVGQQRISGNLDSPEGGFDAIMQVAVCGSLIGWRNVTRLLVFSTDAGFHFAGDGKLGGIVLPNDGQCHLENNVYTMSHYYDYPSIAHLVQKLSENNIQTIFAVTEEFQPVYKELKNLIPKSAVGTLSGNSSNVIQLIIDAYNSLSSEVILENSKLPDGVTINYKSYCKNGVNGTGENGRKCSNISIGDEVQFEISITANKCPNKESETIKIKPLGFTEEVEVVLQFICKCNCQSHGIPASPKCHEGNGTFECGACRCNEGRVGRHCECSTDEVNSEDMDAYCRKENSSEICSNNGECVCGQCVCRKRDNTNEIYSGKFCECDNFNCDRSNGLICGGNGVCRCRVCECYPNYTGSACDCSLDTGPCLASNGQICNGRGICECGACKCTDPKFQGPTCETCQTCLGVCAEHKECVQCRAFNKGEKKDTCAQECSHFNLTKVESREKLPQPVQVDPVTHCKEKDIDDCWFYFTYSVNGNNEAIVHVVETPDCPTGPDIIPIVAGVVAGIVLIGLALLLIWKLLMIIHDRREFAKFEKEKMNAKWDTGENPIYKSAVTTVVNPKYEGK
UniProt P19091: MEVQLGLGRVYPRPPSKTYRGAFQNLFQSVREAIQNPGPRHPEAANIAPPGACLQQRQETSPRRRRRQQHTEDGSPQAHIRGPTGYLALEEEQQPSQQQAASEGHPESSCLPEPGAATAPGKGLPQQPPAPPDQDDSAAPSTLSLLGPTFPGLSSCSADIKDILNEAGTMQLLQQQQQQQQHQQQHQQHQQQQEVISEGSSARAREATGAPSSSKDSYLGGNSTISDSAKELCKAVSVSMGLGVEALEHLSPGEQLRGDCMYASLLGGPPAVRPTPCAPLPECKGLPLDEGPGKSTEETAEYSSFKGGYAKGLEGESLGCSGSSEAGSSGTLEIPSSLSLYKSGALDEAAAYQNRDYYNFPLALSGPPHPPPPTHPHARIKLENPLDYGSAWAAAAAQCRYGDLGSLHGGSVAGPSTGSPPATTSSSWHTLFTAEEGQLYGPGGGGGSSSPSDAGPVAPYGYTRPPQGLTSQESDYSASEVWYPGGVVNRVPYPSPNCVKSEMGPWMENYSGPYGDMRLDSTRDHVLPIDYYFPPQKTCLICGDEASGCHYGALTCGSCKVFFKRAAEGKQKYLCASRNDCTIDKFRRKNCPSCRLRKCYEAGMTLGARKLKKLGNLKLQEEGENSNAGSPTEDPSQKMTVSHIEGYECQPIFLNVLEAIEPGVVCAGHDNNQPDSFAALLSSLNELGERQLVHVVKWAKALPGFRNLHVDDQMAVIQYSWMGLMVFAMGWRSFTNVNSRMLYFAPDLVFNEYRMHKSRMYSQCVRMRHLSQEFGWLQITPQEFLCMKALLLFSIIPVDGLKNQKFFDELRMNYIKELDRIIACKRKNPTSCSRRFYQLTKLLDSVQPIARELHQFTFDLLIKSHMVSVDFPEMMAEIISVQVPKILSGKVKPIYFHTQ
UniProt Q8BTM8: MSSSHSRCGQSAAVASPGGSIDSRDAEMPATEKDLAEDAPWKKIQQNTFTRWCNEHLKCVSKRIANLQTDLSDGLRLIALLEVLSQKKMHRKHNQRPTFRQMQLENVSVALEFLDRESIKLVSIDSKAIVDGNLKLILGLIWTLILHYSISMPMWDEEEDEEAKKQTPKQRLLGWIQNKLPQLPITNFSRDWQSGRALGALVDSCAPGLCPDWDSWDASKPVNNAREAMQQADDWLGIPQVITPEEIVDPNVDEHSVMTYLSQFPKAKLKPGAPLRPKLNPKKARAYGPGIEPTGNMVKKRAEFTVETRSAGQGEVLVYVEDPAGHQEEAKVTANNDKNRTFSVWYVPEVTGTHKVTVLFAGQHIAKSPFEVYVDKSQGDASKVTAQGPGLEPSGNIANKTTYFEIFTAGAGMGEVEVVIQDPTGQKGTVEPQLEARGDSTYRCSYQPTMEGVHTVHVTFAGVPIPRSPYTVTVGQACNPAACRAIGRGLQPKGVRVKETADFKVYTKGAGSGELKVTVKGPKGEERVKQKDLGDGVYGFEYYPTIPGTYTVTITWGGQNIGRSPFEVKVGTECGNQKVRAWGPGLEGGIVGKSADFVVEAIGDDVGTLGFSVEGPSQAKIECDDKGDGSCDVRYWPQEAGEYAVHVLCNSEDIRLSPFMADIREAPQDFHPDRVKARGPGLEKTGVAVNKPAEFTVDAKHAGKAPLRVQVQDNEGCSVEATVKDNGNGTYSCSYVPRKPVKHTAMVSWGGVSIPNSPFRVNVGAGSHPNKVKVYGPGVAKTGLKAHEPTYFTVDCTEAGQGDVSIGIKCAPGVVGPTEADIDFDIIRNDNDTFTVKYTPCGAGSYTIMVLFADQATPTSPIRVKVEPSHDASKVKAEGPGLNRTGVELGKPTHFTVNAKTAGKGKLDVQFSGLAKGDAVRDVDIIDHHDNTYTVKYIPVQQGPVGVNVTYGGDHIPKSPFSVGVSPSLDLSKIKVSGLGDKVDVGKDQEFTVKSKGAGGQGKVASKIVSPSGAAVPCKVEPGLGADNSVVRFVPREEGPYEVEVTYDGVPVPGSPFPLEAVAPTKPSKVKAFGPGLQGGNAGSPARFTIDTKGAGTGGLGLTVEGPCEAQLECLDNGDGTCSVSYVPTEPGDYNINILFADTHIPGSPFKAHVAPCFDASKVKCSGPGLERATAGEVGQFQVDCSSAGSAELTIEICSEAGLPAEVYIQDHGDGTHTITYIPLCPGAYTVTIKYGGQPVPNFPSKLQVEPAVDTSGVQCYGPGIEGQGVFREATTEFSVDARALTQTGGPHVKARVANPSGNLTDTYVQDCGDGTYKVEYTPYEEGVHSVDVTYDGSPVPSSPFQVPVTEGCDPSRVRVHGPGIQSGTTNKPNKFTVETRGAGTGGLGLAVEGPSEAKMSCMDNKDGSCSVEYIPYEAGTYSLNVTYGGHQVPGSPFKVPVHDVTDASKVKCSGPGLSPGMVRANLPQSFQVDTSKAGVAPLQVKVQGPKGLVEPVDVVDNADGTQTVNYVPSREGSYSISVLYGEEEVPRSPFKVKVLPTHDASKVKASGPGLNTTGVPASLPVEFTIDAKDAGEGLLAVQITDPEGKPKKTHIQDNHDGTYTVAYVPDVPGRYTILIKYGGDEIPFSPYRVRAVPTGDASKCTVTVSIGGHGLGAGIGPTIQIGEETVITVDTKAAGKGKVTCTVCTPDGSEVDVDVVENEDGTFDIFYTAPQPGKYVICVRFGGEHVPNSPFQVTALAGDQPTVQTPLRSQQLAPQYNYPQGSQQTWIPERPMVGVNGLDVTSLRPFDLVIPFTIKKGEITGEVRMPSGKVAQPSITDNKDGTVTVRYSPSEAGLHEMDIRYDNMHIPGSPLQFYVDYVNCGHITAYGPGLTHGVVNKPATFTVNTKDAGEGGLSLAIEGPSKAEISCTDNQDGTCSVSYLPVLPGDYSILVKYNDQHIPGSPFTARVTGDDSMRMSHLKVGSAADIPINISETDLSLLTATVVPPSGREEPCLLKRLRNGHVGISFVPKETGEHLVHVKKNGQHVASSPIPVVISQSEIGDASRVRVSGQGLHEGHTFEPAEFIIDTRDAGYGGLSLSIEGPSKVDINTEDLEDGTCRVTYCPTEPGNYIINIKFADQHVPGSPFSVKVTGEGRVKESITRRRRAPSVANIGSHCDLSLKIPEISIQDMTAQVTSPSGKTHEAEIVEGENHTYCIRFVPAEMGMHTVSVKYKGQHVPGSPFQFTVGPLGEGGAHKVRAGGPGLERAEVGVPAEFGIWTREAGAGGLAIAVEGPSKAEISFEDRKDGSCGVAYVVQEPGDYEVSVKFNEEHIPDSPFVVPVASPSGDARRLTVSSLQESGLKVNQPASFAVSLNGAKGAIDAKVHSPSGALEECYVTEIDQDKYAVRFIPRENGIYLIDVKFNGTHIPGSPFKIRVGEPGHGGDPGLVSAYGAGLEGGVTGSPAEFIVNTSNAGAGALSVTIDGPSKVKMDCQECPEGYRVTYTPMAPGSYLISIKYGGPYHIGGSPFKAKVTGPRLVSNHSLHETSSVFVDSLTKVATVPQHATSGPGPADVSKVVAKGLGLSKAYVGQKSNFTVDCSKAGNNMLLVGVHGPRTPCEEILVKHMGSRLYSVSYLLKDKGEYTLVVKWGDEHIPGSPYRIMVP
UniProt Q8VI36: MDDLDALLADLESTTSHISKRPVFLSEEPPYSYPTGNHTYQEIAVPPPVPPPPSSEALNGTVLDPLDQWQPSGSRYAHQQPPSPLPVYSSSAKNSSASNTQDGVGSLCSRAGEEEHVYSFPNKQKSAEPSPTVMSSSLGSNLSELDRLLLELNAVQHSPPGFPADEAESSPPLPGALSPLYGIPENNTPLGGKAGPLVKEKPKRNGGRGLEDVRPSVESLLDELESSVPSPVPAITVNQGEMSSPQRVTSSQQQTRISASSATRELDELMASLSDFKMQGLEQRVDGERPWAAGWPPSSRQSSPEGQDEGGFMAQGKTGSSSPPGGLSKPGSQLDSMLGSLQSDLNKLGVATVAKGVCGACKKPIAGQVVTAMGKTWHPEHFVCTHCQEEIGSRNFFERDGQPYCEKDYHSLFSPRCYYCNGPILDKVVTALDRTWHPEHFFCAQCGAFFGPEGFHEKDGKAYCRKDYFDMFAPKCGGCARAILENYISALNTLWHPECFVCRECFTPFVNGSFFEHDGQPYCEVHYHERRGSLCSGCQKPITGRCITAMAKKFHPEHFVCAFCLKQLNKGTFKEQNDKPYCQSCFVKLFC

| binding [1] | binding [2] | binding [3] | binding [6] | binding [7] | Substance | binding [4] | binding [5] | binding [8] |
| --- | --- | --- | --- | --- | --- | --- | --- | --- |
| binds |  |  |  |  | P-Tyr 118-paxillin (endogenous, NIH3T3 fibroblasts) (from UniProt Q8VI36 1-591) |  |  |  |
|  | binds | no binding |  |  | Focal adhesion kinase (endogenous, NIH3T3 fibroblasts) (from UniProt P34152 1-1052) (enzyme) | no binding (condition: with 10 µM Casodex) |  |  |
| binds |  | binds | binds | binds weakly | Integrin beta 1 (endogenous, NIH3T3 fibroblasts) (from UniProt P09055 21-798) (receptor) |  | no binding (condition: with 10 microM Casodex) |  |
| no binding | binds |  | binds |  | Androgen receptor (endogenous, NIH3T3 fibroblasts) (from UniProt P19091 1-899) | no binding (condition: with 10 µM Casodex) |  | no binding (condition: with 10 microM Casodex) |
